Among the data in paper PMC8160438, “A Novel Heptapeptide, GPPGPAG Transfers to the Brain, and Ameliorates Memory Dysfunction and Dendritic Atrophy in Alzheimer’s Disease Model Mice” (Frontiers in Pharmacology, 2021) are binding values, retold here.

By UniProt entry, the sequences of proteins in these tests, tags left out.
UniProt P62259: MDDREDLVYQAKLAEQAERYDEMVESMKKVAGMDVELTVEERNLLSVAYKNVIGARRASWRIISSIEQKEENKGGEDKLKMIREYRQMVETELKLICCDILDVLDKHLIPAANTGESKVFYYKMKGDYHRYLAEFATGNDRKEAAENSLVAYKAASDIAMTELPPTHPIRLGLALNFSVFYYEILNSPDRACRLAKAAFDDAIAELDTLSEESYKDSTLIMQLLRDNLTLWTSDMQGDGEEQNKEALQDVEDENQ

For test [1], the target named is 14-3-3ε (mouse (endogenous in ddY mouse cortical neurons)) (UniProt P62259). Nature of the test: co-IP; cortical neurons treated with 10 nM GPPGPAG or vehicle for 60 min at 37°C; lysate (30 μg) immunoprecipitated with anti-14-3-3ε antibody on Dynabeads Protein G; eluate dot blotted with anti-GPPGPAG antibody; only the binder purified.
Test [2] shares this target. Nature of the test: DARTS (drug affinity responsive target stability); cortical neurons treated with 10 nM GPPGPAG or vehicle for 30 min at 37°C; lysate (3.1 μg protein) proteolysed with 0.5 μg thermolysin, 50 mM Tris-HCl pH 8.0, 50 mM NaCl, 10 mM CaCl2, 30 min at 37°C; SDS-PAGE, silver staining; changed band identified by nanoLC-MS/MS; only the binder purified.

These are yes or no findings as the source states them, for the method shown. For some assays here: In cells and extracts the contact can be indirect. Some results given as binding are weak or reduced against the parent protein; the word gives no strength.

As for GPPGPAG, the binding result in test [1] and in test [2] was “binds” throughout.
